Test results: PubChem BioAssay AID1508600 (Functional Genomics Laboratory (NCATS/FGL), 2020)
Screen size: about 53,000 sequences; about 3,700 (7%) were called active.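 Rule for the calls: active = gene knockdowns whose robust z-score for IL-1 alpha signal is at least 2 or at most -2, so actives lie on both sides; inactive = the rest.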 Some of the results follow.

Assay: Components of the Cytosolic LPS Sensing Pathway: Gene Identification via Genome-wide siRNA Screen;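 note: robust z of the log signal after scaling to non-targeting control siRNA wells of the plate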
Details: RAW264.7 macrophages, IL-1a HTRF, actives lie on both sides, screened at 100 nM (by protocol), cells primed 5 h with Pam3CSK4 first
Procedure, shortened: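 Three distinct siRNAs per gene were tested singly at 100 nM in RAW264.7 macrophages. Following Pam3CSK4 priming and 24 hour LipidA transfection, IL-1a secretion was read by HTRF.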

Row | Sequence | z-score
1 | GUCAUCAAUCAAGUCUUGATT against Olfr1408 | inactive: -0.0822
2 | GGCAAAUACAGGCUAAAGUTT against Caps2 | inactive: 1.06
3 | CCAAUGGAACAUUAAGUGATT against Psma1 | inactive: -0.485
4 | GGUGCUUUCUGCUUACUGATT against Ephb2 | inactive: -0.787
5 | GGAGCCAACAACAACUCCUTT against Rbfox2 | inactive: 0.0956
6 | CGUGUAUUUUACAAAGAGUTT against Gm11541 | inactive: 0.348
7 | CCUGGCAUUUGGAGCAUUCTT against Olfr1154 | inactive: 0.234
8 | GCAUUACAAAUUGUCUACATT against Ugdh | inactive: -0.175
9 | GCGGAAGUAUUACCAAGACTT against Fam166c | inactive: -0.908
10 | GCUAUUCCGGAAUAAGAGUTT against Nell1 | inactive: 0.0447
11 | GGAAGUGUUUGUUCUAAUCTT against Prr18 | inactive: 0.834
12 | GCAACUCAACCUCAACCAUTT against Lrrc8e | inactive: -0.597
13 | GGAAGGAAAACCUUUCAACTT against Cyp2j6 | inactive: 0.975
14 | GGAAUAUGCCAAAAUGAAATT against Nuf2 | inactive: 0.139
15 | GGCCUUGGUGAAAAUGCAGTT against Plaat1 | active: -2.07
16 | GGCUACAGGGAACAUAGAGTT against Pdzk1ip1 | inactive: 1.88
17 | CCGAAAAUGGUAAAUAACUTT against Rnf17 | inactive: 0.111
18 | CCAGUGAUAACUCUCUUGUTT against A830039N20Rik | inactive: 1.23
19 | GGUGCUUGUUUAAAUGGUUTT against Slc19a1 | inactive: -0.569
20 | CCAAGGACACUAUACAAAUTT against Fank1 | inactive: 0.957
21 | GCACAGUACUAUCUCGGCATT against Ttc4 | inactive: 0.386
22 | GGAAAGAGUUCAACAGGGATT against Gimap4 | inactive: -0.853

Row | Sequence | z-score
23 | GCUUAGUGACCAUCUCCGUTT against Epop | inactive: 0.236
24 | GGUCUCUUGGUGAUUUCCATT against Phyhipl | inactive: 0.482
25 | GCCAGAGUACCACAUUAGUTT against Pcdhga4 | inactive: 0.921
26 | GGAAAAGAAACACAUCUGGTT against Col2a1 | inactive: -0.68
27 | GGAAAAGAAAAUCGAGACCTT against Ubap2l | inactive: 0.776
28 | GGAGCUGUUUGACAGUUUUTT against Nin | inactive: 1.95
29 | GGCAGUUCUUUGUAUUAAATT against Dhcr7 | inactive: 0.223
30 | GCCUCCUAGUAUUUACAUGTT against Ube2j2 | inactive: 0.8
31 | GGCAGAAUGUUGUAAAUGATT against Man2b1 | inactive: -0.0977
32 | CGAUGACUGUAAAAAGUCUTT against Plcb1 | inactive: 0.541
33 | GGACCAUGUGACAAAGCCUTT against Fam131b | active: 2.16
34 | CGAUGACCUUGAAUAAAAATT against Vim | inactive: -0.706
35 | CCUCAAGGAACUGAAUGCCTT against Olfr1320 | inactive: 0.0261
36 | CCUAGUCACAAAUUCAGGATT against Skida1 | inactive: -0.0157
37 | GGGCAAAAUGUGGAGAUGUTT against Vstm2a | inactive: -0.116
38 | GCUCUGCUGUGUUAUAUGGTT against C330011M18Rik | inactive: 0.144
39 | CGGGACUUUAGAUUAUGAATT against Pcdha11 | inactive: -0.284
40 | CGGGAAUCUAAAUAUGGUGTT against Oat | inactive: -1.47
41 | GGAGCAUGAGGACAUCAGATT against Tnp1 | inactive: -0.444
42 | CGUGGUGCAGAAUUUUUAUTT against Cldn14 | inactive: 1.13
43 | GGAAAAGGAGGAGGAAGGCTT against Lpin1 | inactive: -1.84
44 | GGAGAUCUUGAGAUUGUAUTT against Ticrr | inactive: 0.424

Row | Sequence | z-score
45 | GGAUGUAGAACUCUUAGCUTT against Wdr25 | inactive: 1.23
46 | CGAGCAUUCACCGUACGUATT against Id4 | inactive: 0.0542
47 | GGUUUUGGAAAAUUUGCUATT against Hal | inactive: 0.349
48 | GGUAGAAAAUUGUCUUUUCTT against Zcchc7 | inactive: 1.58
49 | GCACUAUAAUUCUCAUUACTT against Omd | inactive: -0.123
50 | GGAUCAUUCCAUUUCUGCCTT against Sh3pxd2b | inactive: 0.505
51 | GCCGAGUUGAAGUGAAGAATT against Pold2 | inactive: -0.653
52 | CCUUGUUCGUCGCUGAGUUTT against Acer3 | inactive: 1.08
53 | GCAUUAUGACUCUAAUAGCTT against Olfr60 | inactive: -0.919
54 | GCAACAAUGUAUGCGUAUATT against Mrpl27 | inactive: 1.96
55 | GGCAGUUUGACAACUUUAATT against Fibp | inactive: -0.653
56 | GGAACAAGCCAGGCACAUATT against Prl2c5 | inactive: 0.389
57 | GGGCAAGAAUAAAUGAAAGTT against Hes1 | inactive: 1.63
58 | GGCCAUCAGAUUGGUGAAATT against Ccl17 | inactive: -0.0075
59 | GGACCCAGCAUUGGACUUGTT against Zranb1 | inactive: -1.36
60 | GGAGACAGAGGAAAUUCAGTT against Apoa5 | inactive: 1.04
61 | GCCCUCAUCAAUUCAACCCTT against Cyp2ab1 | inactive: -1.55
62 | GGACUCAAGCAAACUCCAGTT against Stx12 | inactive: -1.05
63 | GAGAUGCAUUGUUUCAGGUTT against Vmn1r208 | inactive: 0.341
64 | GCAAAUCCCAGCUCAAUGUTT against Zfp810 | inactive: -1.65
65 | GGCAGUUAGUAAGUUUAAATT against Eif5a2 | inactive: 1.22
66 | CCGAUUUUUACUUUUAGCUTT against Slc16a7 | inactive: 1.86

From no. 33 up to 63, copied from above:
Row | Sequence | z-score
33 | GGACCAUGUGACAAAGCCUTT against Fam131b | active: 2.16
34 | CGAUGACCUUGAAUAAAAATT against Vim | inactive: -0.706
35 | CCUCAAGGAACUGAAUGCCTT against Olfr1320 | inactive: 0.0261
36 | CCUAGUCACAAAUUCAGGATT against Skida1 | inactive: -0.0157
37 | GGGCAAAAUGUGGAGAUGUTT against Vstm2a | inactive: -0.116
38 | GCUCUGCUGUGUUAUAUGGTT against C330011M18Rik | inactive: 0.144
39 | CGGGACUUUAGAUUAUGAATT against Pcdha11 | inactive: -0.284
40 | CGGGAAUCUAAAUAUGGUGTT against Oat | inactive: -1.47
41 | GGAGCAUGAGGACAUCAGATT against Tnp1 | inactive: -0.444
42 | CGUGGUGCAGAAUUUUUAUTT against Cldn14 | inactive: 1.13
43 | GGAAAAGGAGGAGGAAGGCTT against Lpin1 | inactive: -1.84
44 | GGAGAUCUUGAGAUUGUAUTT against Ticrr | inactive: 0.424
45 | GGAUGUAGAACUCUUAGCUTT against Wdr25 | inactive: 1.23
46 | CGAGCAUUCACCGUACGUATT against Id4 | inactive: 0.0542
47 | GGUUUUGGAAAAUUUGCUATT against Hal | inactive: 0.349
48 | GGUAGAAAAUUGUCUUUUCTT against Zcchc7 | inactive: 1.58
49 | GCACUAUAAUUCUCAUUACTT against Omd | inactive: -0.123
50 | GGAUCAUUCCAUUUCUGCCTT against Sh3pxd2b | inactive: 0.505
51 | GCCGAGUUGAAGUGAAGAATT against Pold2 | inactive: -0.653
52 | CCUUGUUCGUCGCUGAGUUTT against Acer3 | inactive: 1.08
53 | GCAUUAUGACUCUAAUAGCTT against Olfr60 | inactive: -0.919
54 | GCAACAAUGUAUGCGUAUATT against Mrpl27 | inactive: 1.96
55 | GGCAGUUUGACAACUUUAATT against Fibp | inactive: -0.653
56 | GGAACAAGCCAGGCACAUATT against Prl2c5 | inactive: 0.389
57 | GGGCAAGAAUAAAUGAAAGTT against Hes1 | inactive: 1.63
58 | GGCCAUCAGAUUGGUGAAATT against Ccl17 | inactive: -0.0075
59 | GGACCCAGCAUUGGACUUGTT against Zranb1 | inactive: -1.36
60 | GGAGACAGAGGAAAUUCAGTT against Apoa5 | inactive: 1.04
61 | GCCCUCAUCAAUUCAACCCTT against Cyp2ab1 | inactive: -1.55
62 | GGACUCAAGCAAACUCCAGTT against Stx12 | inactive: -1.05
63 | GAGAUGCAUUGUUUCAGGUTT against Vmn1r208 | inactive: 0.341

(cont.)

Row | Sequence | z-score
67 | GGGCUCCUUAUGGAGGAUATT against A630091E08Rik | inactive: -0.688
68 | GGAGAGGUGGAAAUCUCUATT against Rasgef1c | inactive: 0.202
69 | GGAUGAGAGAAAGUUACCCTT against Tspo2 | active: -2.78
70 | GCAUUCAGAAAUUGAGGGUTT against Sin3b | inactive: -0.0974
71 | GCUGAAUUCGAAGAACAAUTT against Bpifb2 | inactive: 1.91
72 | GCCCAAACAUUCUUCGACUTT against Ubl3 | inactive: -1.62
73 | GGGCAUCUUGUAUAUCUGGTT against Spata33 | inactive: 0.363
74 | GGGUCACAGAGGUUACCCATT against Col2a1 | inactive: 1.25
75 | CCAUUGAAUCAGUUGAAGUTT against Slc5a7 | inactive: 1.21
76 | GGGUGAAGAUUCUCUACAATT against Dctn3 | inactive: -0.621
77 | GGGAACCAAACUGUCAUCUTT against Olfr20 | inactive: -0.133
78 | GGAGUACUGGGCAUAUAAATT against Slc29a3 | inactive: -0.324
79 | GGGUUAUGAAGACAAACCATT against Ccdc47 | inactive: -0.307
80 | GCUCCUAAUCUAGGAUCUGTT against Prss22 | inactive: 1.69
81 | CCUUACUGAUACUCAAUUUTT against Sec14l4 | inactive: 1.21
82 | GAGCCUCUGUCUUUUUCUATT against Olfr342 | inactive: -0.32
83 | GGCAGGUUUGGUAACCAGATT against Fut1 | inactive: 0.559
84 | GCAAGGUGCACCUAAAGCATT against Egr4 | inactive: -0.664
85 | GCUGUCUAGUACAUCUGACTT against Cry2 | inactive: -0.32
86 | CGACACUCAAUGUGAACUUTT against Grtp1 | inactive: -0.881
87 | GGCUGAUUUUGAAAAGCAATT against Rdh5 | inactive: 1.47
88 | GGAAAUAUGCGAAAGCUGATT against Seh1l | inactive: -1.88

Row | Sequence | z-score
89 | GGACUUUGAAAAGAGAAUUTT against Polb | inactive: -0.213
90 | GAAAGUUUACGGGAAAUCUTT against Klf13 | active: 2.04
91 | GCAUCACGGAUUCGAAUUGTT against Dgkz | inactive: -1.25
92 | CCAUCAAAUCGAACUGUUUTT against Tmx1 | inactive: 0.394
93 | GGUAUGCUAUGAUCUUAACTT against Olfr561 | inactive: -0.0643
94 | CGGGAUUAAUCUUUCUGGGTT against Clec1b | inactive: -1.94
95 | GGACACUCAGAAGAAAACCTT against Syne2 | inactive: 0.0756
96 | GGGCGAGUUGAAGAAUUUCTT against Dbf4 | inactive: 1.12
97 | GGAGUAGCUGUACUCAACATT against Olfr790 | inactive: -0.246
98 | GCUCCAACACGAGAAGAAATT against Zfp598 | inactive: 0.397
99 | CCGGUUUCGAAAGAGAACUTT against Irs1 | inactive: 0.105
100 | GGAAGGAGGACAGAGGAAUTT against Tmem19 | active: 2.34
101 | GGUGAGCACUAAAUGCAGATT against Cldn16 | inactive: 0.892
102 | GUGACAAUGAAAAAUGUGUTT against Clec4b1 | active: -2.42
103 | GGUGUACCCAGUACUGCCATT against Cdk2 | inactive: 0.57
104 | GGCAUUUUUCGGAUUGACATT against Mmp27 | inactive: -0.807
105 | GCAUCUUCCACAUUCGCUCTT against Olfr945 | inactive: 0.452
106 | GGACAGGAAGGUCAUCCCUTT against Sntb2 | inactive: -0.568
107 | CCCUCUGUUCGAGAAGAGGTT against Rpl7a | inactive: 1.57
